The source of these data is patent publication US20170002075A1.

Protein sequences, listed by entry. Tags and fused reporters are not part of them. Lines headed by an entry give the natural chain unless they say otherwise; changes in a name come on top. Residues count along the entry.
UniProt Q15109: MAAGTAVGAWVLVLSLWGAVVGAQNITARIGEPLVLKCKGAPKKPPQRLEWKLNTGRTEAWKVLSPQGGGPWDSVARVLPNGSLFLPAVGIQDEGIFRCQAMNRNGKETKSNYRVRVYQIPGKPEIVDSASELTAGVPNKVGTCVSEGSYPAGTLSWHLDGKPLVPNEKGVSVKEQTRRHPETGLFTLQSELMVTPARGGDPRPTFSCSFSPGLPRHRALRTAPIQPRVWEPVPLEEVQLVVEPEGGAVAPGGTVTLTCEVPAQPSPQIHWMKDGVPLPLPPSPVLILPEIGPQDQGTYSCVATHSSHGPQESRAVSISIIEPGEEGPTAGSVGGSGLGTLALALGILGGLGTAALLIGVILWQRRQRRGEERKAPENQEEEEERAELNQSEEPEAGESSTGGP
UniProt Q62151, residues 23-340: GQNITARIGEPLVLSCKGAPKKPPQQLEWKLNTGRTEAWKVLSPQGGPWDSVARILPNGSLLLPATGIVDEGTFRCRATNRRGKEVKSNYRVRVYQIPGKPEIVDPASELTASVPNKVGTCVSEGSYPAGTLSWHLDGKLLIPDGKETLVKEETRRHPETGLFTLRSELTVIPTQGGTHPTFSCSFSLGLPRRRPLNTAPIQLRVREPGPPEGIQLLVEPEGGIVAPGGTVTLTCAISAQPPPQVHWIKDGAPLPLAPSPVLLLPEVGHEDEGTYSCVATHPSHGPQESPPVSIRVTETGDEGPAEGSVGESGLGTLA

These are yes or no findings as the source states them, for the method shown. Some entries that bind do so weakly or less than the wild type.

In test [1] the target is recombinant husRAGE protein 293/6.1 sRAGE His 6 (1-331 sRAGE-HIS) (human) (UniProt Q15109). Put plainly: HTRF competition: husRAGE-His pre-incubated with antibody; blocked ligand: biotinylated Aβ1-42 globulomer; anti-6His cryptate / streptavidin XL-665.
The target is the same in test [2]. Put plainly: dot blot, non-denatured protein on nitrocellulose, antibody 7.14 nM.
Test [3] addresses mouse RAGE (Mu-RAGE) (mouse) (UniProt Q62151). Put plainly: Biacore SPR (Table 7, column Mouse-RAGE). For orientation: In SPR one partner is held on a chip, and binding of the other changes the refractive index at the surface.
For test [4], the target named is BacMam-expressed sRAGE (human) (UniProt Q15109). In words: antigen bound to antibody immobilized on CNBr-Sepharose (epitope excision).

B1: anti-human RAGE monoclonal antibody 7F9 (murine, hybridoma-derived) (antibody, V domains shown)
VH: EEKLEESGGGLVQLGGSMKISCVASGFTLSNYWMDWVRQSPEKGLEWIAEIRLKSNYYSTHYAESVKGRFSISRDDSKGSVSLQMDNLTAEDTGIYFCARNAYWYFDVWGTGTTVTVSS
VL: DIVMTQSHKFMSTSVGDRVSATCKASQDVGTSVAWYQQKLGQSPKLLIYWTSTRHTGVPDRFTGSGSGTDFTLTISNVQSEDLADYFCQQYNNYPLTFGDGTKLELKR
For B1, the binding result in test [1], in test [2], in test [3] and in test [4] was “binds” each time.

B2: anti-human RAGE monoclonal antibody 11E6 (murine, hybridoma-derived) (antibody, V domains shown)
VH: QIQLVQSGPELKKPGETVKISCKASGYTFTNFGMNWVKQAPGKGLKWMGYINTNTGESIYSEEFKGRFAFSLETSASTAYLQINNLKNEDTATYFCARSRMVTAYGMDYWGQGTSVTVSS
VL: DIVMTQSQKFMSTSVGDRVSITCKASQNVGTAVAWYQQRPGQSPKLLIFSASNRYTGVPDRFTGSGSGTDFTLTLSNMQPEDLADYFCQQYSSYPLTFGVGTKLELKR
On to B2, for which the binding entry in test [3] is “binds”.

B3: anti-human RAGE monoclonal antibody 4E5 (murine, hybridoma-derived) (antibody, V domains shown)
VH: QVQLQQSGAELVRPGTSVKVSCKASGYAFNNYLIEWIKQRPGQGLEWIGVINPGSGGTNHNEKFKVKATLTADKSSSTAYIQLSSLTSDDSAVYFCARSAGTARARFAYWGQGTLVTVSA
VL: DIQMTQSPSSLSASLGERVSLTCRASQDIGSSLNWLQQEPDGTIKRLIYATSSLDSGVPKRFSGSRSGSDYSLTISSLESEDFVDYYCLQYASFPFTFGSGTKLEIKR
On to B3, for which, in test [4], the binding entry is recorded as “binds”.
